# Results reported in PubChem BioAssay AID504834 (National Center for Advancing Translational Sciences (NCATS), 2011).
# In all, about 320,000 compounds went through this assay and about 22,000 (6.9%) were called active. Inconclusive results, whose numbers are uncertain, are shown with a selection of clear calls. The call rests on the fitted dose curve; in most records, active means well fitted inhibition curve with a large enough effect; inconclusive means small, poorly fitted or top-dose-only effect, or another doubt; inactive means no such curve, though single readings can be large or run the other way. Potencies of inconclusive entries are doubtful fits and often do not repeat.
# Test: Primary qHTS for delayed death inhibitors of the malarial parasite plastid, 96 hour incubation
# Conditions: P. falciparum luciferase reporter growth; series mostly up to 28.7 µM; activity change, negative = inhibition: at the top concentration
# Procedure, shortened: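 96 h incubation, 37 C, 5% CO2, of luciferase-reporter P. falciparum-infected RBCs (2% hematocrit, 0.05% parasitemia final) with test compounds; endpoint luminescence.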
# On the % scale 0 is the no-effect control and ±100 the full control effect; potency means the concentration at half of the fitted maximal effect.
SMILES,Potency,"activity change, negative = inhibition"
COc1ccc(C(C(=O)NC2CCCC2)N(C(=O)c2ccco2)c2ccc(OC)c(OC)c2)cc1 (centres undefined),"inconclusive: 9.28 µM [inhibitor, single point]",
O=C(NC12CC3CC(CC(C3)C1)C2)c1c(Cl)cccc1Cl,,inactive: 0%
O=C(O)c1cccc(-n2cccc2/C=C\[N+](=O)[O-])c1,"inconclusive: 2.08 µM [inhibitor, full curve, poor fit]",
c1csc(C2=NNC(=NC3CCCCC3)SC2)c1,,inactive: 0%
COc1ccc(N=Nc2n(C)c3ccccc3[n+]2C)cc1,active: 0.522 µM,
CCc1cc(CNC(=O)CC2C(=O)NCCN2Cc2ccc(-c3ccccc3)cc2)on1 (centres undefined),active: 2.08 µM,
CSc1nc2ccc(S(=O)(=O)N(C)C)cc2s1,active: 11.7 µM,
NC(=O)c1ccccc1NC(=O)Cc1cccs1,"inconclusive: 18.5 µM [inhibitor, single point]",
Cn1nc(C(=O)Oc2cc(=O)n(C)c3ccccc23)c2ccccc2c1=O,,inactive: -6.44%
Cc1ccccc1/C=C1\C(=O)Nc2ccc(F)cc21,,inactive: 8.69%
CCOC(=O)[C@H]1[C@H]2COc3ccc(OC)cc3[C@@H]2N2C(=O)c3cc(C)ccc3NC(=O)[C@@]12C,"inconclusive: 2.62 µM [inhibitor, partial curve, poor fit]",
COc1ccc([C@H]2CC(=O)C=C(c3ccccc3)C2)cc1OC,"inconclusive: 18.5 µM [inhibitor, single point]",
Cc1cccc(NCc2ccccc2O)n1,,inactive: -20.6%
CCCN(CCC)CC(O)Cn1c2ccccc2c2ccccc21 (centres undefined),"inconclusive: 11.7 µM [inhibitor, single point]",
O=C(c1ccco1)N1CCN(S(=O)(=O)c2ccc3c(c2)CCN3C(=O)C2CC2)CC1,"inconclusive: 0.415 µM [inhibitor, full curve, poor fit]",
CCC1(c2ccc(F)cc2)NC(=O)N(CC(=O)N2CCN(C(=O)c3cccs3)CC2)C1=O (centres undefined),,inactive: -15%
COc1ccc([C@]23Cc4cc(OC)c(OC)cc4C(O2)C2=C(CC4(CCCCC4)OC2=O)O3)cc1,"inconclusive: 1.35 µM [inhibitor, partial curve]",
Cc1ccnc(NC(=O)c2cc([N+](=O)[O-])cc([N+](=O)[O-])c2)c1,,inactive: 10.7%
COc1ccc(NC(=O)N2CCCC2C(=O)NCCc2ccccc2)cc1 (centres undefined),,inactive: 220%
Cc1cccc(OCCC(=O)Nc2ccccc2C(N)=O)c1,,inactive: 34.7%
CCOc1ccc(N2C(=O)CC(NCCc3ccc(S(N)(=O)=O)cc3)C2=O)cc1 (centres undefined),,inactive: -15%
Cc1cc(C(=O)CSc2nnc(-c3ccc(F)cc3)o2)c(C)n1CC1CCCO1 (centres undefined),active: 13.1 µM,
CCOc1cccc(-c2nnc(SCC(=O)NC3CC3)n2C)c1,"inconclusive: 11.7 µM [inhibitor, partial curve]",
CCCCc1nnc(NC(=O)C2CCCO2)s1 (centres undefined),"inconclusive: 5.22 µM [inhibitor, single point]",
N#Cc1cccc2c1-c1ccccc1/C2=N/NC(N)=S,"inconclusive: 11.7 µM [inhibitor, partial curve]",

SMILES,Potency,"activity change, negative = inhibition"
Cc1cc(Cl)c2oc(C(=O)N3CCN(c4cccc(C)n4)CC3)c(C)c2c1,active: 3.7 µM,
Cc1cc(C)cc(NC(=O)N2CCCN(c3ncccc3[N+](=O)[O-])CC2)c1,"inconclusive: 10.4 µM [inhibitor, single point]",
CCOC(=O)N1CCC(Nc2c([N+](=O)[O-])cc(C(=O)O)cc2[N+](=O)[O-])CC1,,inactive: 6.3%
O=C(CC1CCCC1)N1CCCC(Nc2cccc(F)c2)C1 (centres undefined),"inconclusive: 18.5 µM [inhibitor, single point]",
CCC(C)(C)NC(=O)C(c1cccn1C)N(Cc1ccc(OC)cc1)C(=O)Cn1nnc2ccccc21 (centres undefined),"inconclusive: 13.1 µM [inhibitor, partial curve, poor fit]",
O=C/C(=C\Nc1ccc(S(=O)(=O)CCO)cc1)c1nc2cc(Cl)ccc2o1,,inactive: 3.33%
Nn1c(Nc2ccccc2)nc2sc3c(c2c1=O)CCC3,,inactive: 30.8%
Cc1cc(C)n2c(SCCC(C)C)nnc2n1,"inconclusive: 0.37 µM [inhibitor, full curve, poor fit]",
CC/C=C\C/C=C\C/C=C\CCCCCCCC(=O)O,"inconclusive: 18.5 µM [inhibitor, single point]",
O=[N+]([O-])c1ccccc1NC1CCN(Cc2ccccc2)CC1,,inactive: 47.4%
CC(=O)N1CCOc2ccc(S(=O)(=O)N3CCC(C(=O)Nc4cc(C)cc(C)c4)CC3)cc21,"inconclusive: 18.5 µM [inhibitor, single point]",
O=C(O[C@@H]1[C@H](Cc2ccccc2)NS(=O)(=O)[C@H]2C[C@@H]3C=C[C@]12O3)c1ccccc1Br,"inconclusive: 18.5 µM [inhibitor, partial curve, poor fit]",
COCCCNC(=O)C1=CCN(S(=O)(=O)c2ccc(C)cc2)CC1,"inconclusive: 4.15 µM [inhibitor, partial curve]",
COc1ccc(OC)c(/C=N/NC(=O)Cn2ccnc2C)c1,,inactive: 47%
O=C(/C=C/c1ccccc1)NCC(=O)N/N=C/c1ccccc1[N+](=O)[O-],,inactive: -13.8%
CCOc1ccc(NC(=O)C(C)C(Cc2ccc(C)cc2)C(=O)O)cc1 (centres undefined),"inconclusive: 1.47 µM [inhibitor, full curve]",
Cn1c(CN2CCCC2)nc2cc(NC(=O)COc3ccc([N+](=O)[O-])cc3)ccc21,"inconclusive: 11.7 µM [inhibitor, single point]",
Cc1ccc(Cn2c(SCCN3CCCCC3)nc3c2c(=O)n(C)c(=O)n3C)cc1,"inconclusive: 10.4 µM [inhibitor, single point]",
O=C(COc1ccc(Br)cc1)N/N=C1/SCC(=O)N1Cc1ccccc1,,inactive: -4.11%
CCS(=O)(=O)N(CC(=O)Nc1cccc2ccccc12)c1ccc(OC)cc1,,inactive: -7.72%
CN(C)C(CNC(=O)CNC(=O)Cc1cccc2ccccc12)c1ccccc1 (centres undefined),,inactive: 27.6%
Cc1cc(C)c2nc(-c3ccccn3)cc(C(=O)Nn3cnnc3)c2c1,"inconclusive: 18.5 µM [inhibitor, single point]",
N#Cc1nc(COc2ccc(F)cc2)oc1N1CCC(Cc2ccccc2)CC1,"inconclusive: 4.15 µM [inhibitor, partial curve, poor fit]",
N#C/C(=C\c1ccc(OC(=O)c2ccc(Cl)s2)cc1)c1nc2ccccc2[nH]1,"inconclusive: 10.4 µM [inhibitor, partial curve, poor fit]",
CC(=O)Nc1sc(N/N=C/c2ccc(C)cc2)nc1-c1ccc(C)cc1,"inconclusive: 18.5 µM [inhibitor, single point]",

# Three records drawn at random from those above, as already listed:
SMILES,Potency,"activity change, negative = inhibition"
CC(=O)N1CCOc2ccc(S(=O)(=O)N3CCC(C(=O)Nc4cc(C)cc(C)c4)CC3)cc21,"inconclusive: 18.5 µM [inhibitor, single point]",
O=C(O[C@@H]1[C@H](Cc2ccccc2)NS(=O)(=O)[C@H]2C[C@@H]3C=C[C@]12O3)c1ccccc1Br,"inconclusive: 18.5 µM [inhibitor, partial curve, poor fit]",
Cc1cc(Cl)c2oc(C(=O)N3CCN(c4cccc(C)n4)CC3)c(C)c2c1,active: 3.7 µM,

# (further entries)

SMILES,Potency,"activity change, negative = inhibition"
CCc1ccc(C2=NN(C(=O)OC)C(O)(C(F)(F)F)C2)cc1 (centres undefined),,inactive: 172%
CC(=O)NCCOc1nc(N2CCCCC2)nc(N2CCCCC2)n1,,inactive: 15.6%
CCOc1ccccc1CNC(=O)C1CCCN(c2nn3c(=O)cc(C)nc3s2)C1 (centres undefined),active: 14.7 µM,
COc1ccc(C(=O)NCc2nc3ccccc3[nH]2)cc1OC,,inactive: 45.9%
CNc1nc2sc3c(c2c(=O)n1C)CC(C)(C)SC3,"inconclusive: 9.28 µM [inhibitor, partial curve]",
COc1ccccc1OCCNC(=O)c1ccc(Br)cc1,"inconclusive: 18.5 µM [inhibitor, single point]",
CCN(CC)S(=O)(=O)c1cccc(NC(=O)COC(=O)C2CC3C=CC2C3)c1 (centres undefined),"inconclusive: 13.1 µM [inhibitor, partial curve, poor fit]",
CC(C)(C)Sc1ccccc1S(=O)(=O)C(C)(C)C,,inactive: 11.2%
CCC(C)N(C(=O)COc1ccc(-c2nnco2)cc1)C1CCS(=O)(=O)C1 (centres undefined),"inconclusive: 3.29 µM [inhibitor, single point]",
N#CC1=C2N=C(N)c3ccccc3N2C2=C(C(=O)CCC2)C1c1ccccc1F (centres undefined),"inconclusive: 10.4 µM [inhibitor, single point]",
Cc1cccc(C)c1NC1=C(Cl)C(=O)OC1OC(=O)c1ccccc1 (centres undefined),"inconclusive: 4.15 µM [inhibitor, single point]",
CCOc1cc(NC(=O)c2ccco2)c(OCC)cc1NC(=O)CCc1ccccc1OC,"inconclusive: 10.4 µM [inhibitor, partial curve, poor fit]",
COC(=O)[C@@H](NCc1cccc(CN([C@H](C(=O)OC)C(C)C)S(C)(=O)=O)c1)C(C)C,active: 14.7 µM,
Cn1cccc1Cc1nnc(SCC(=O)NCc2ccccc2Cl)n1-c1ccc(F)cc1,"inconclusive: 9.28 µM [inhibitor, partial curve]",
COc1ccc(-c2cc(COc3ccccc3)on2)cc1,,inactive: 118%
Cc1nc2c(sc(=S)n2Cc2ccco2)c(=O)n1CC(=O)Nc1cc(F)ccc1F,"inconclusive: 18.5 µM [inhibitor, single point]",
Cc1ccc(S(=O)(=O)NC(Cc2ccccc2)C(=O)NN)cc1 (centres undefined),,inactive: -9.87%
COc1ccc(CC(=O)N/N=C(\C)c2ccccn2)cc1,active: 3.29 µM,
O=C(/C=C/c1cccc([N+](=O)[O-])c1)OC1CCCCC1=O (centres undefined),,inactive: 8.95%
Cc1c(C(=O)N(C)C2CC(C)(C)NC(C)(C)C2)oc2c(F)cccc12,"inconclusive: 10.4 µM [inhibitor, single point]",
O=C(OCC(=O)c1ccc(Cl)cc1Cl)c1ccc2c(c1)C(=O)N(c1cccc3ncccc13)C2=O,,inactive: 31.9%
O=C(Nc1cccc(Cl)c1)C1C2C=CC3(O2)C1C(=O)N(CCCN1CCCCC1)C3C(=O)NC1CCCCC1 (centres undefined),,inactive: -26%
O=C(N/C(=C/c1cccc(Br)c1)c1nc(=S)[nH][nH]1)c1ccccc1,,inactive: -25.2%
CCOc1[nH]n(-c2ccc(Cl)cc2)c(=O)c1C=NCc1cccnc1,"inconclusive: 0.0037 µM [inhibitor, full curve, poor fit]",
